According to the supplement of paper PMC10849652:
This is one part of the list.

Protein sequences, listed by entry. Tags and fused reporters are not part of them. Lines headed by an entry give the natural chain unless they say otherwise; changes in a name come on top.
UniProt Q96FX2: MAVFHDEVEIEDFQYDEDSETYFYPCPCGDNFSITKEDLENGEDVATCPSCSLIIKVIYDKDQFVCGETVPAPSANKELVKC
UniProt Q7L591: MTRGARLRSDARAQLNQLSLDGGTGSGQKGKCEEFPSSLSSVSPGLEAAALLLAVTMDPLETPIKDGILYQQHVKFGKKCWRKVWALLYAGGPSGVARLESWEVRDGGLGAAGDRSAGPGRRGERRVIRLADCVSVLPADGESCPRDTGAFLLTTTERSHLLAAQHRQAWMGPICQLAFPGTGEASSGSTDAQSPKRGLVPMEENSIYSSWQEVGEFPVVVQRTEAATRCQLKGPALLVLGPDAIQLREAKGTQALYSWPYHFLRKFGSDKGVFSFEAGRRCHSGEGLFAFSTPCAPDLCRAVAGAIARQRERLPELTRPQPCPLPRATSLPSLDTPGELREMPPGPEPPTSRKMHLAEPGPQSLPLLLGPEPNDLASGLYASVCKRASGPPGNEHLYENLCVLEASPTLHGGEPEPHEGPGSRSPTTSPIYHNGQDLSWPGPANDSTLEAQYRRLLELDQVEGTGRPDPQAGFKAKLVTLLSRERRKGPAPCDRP
UniProt Q9Y3R5: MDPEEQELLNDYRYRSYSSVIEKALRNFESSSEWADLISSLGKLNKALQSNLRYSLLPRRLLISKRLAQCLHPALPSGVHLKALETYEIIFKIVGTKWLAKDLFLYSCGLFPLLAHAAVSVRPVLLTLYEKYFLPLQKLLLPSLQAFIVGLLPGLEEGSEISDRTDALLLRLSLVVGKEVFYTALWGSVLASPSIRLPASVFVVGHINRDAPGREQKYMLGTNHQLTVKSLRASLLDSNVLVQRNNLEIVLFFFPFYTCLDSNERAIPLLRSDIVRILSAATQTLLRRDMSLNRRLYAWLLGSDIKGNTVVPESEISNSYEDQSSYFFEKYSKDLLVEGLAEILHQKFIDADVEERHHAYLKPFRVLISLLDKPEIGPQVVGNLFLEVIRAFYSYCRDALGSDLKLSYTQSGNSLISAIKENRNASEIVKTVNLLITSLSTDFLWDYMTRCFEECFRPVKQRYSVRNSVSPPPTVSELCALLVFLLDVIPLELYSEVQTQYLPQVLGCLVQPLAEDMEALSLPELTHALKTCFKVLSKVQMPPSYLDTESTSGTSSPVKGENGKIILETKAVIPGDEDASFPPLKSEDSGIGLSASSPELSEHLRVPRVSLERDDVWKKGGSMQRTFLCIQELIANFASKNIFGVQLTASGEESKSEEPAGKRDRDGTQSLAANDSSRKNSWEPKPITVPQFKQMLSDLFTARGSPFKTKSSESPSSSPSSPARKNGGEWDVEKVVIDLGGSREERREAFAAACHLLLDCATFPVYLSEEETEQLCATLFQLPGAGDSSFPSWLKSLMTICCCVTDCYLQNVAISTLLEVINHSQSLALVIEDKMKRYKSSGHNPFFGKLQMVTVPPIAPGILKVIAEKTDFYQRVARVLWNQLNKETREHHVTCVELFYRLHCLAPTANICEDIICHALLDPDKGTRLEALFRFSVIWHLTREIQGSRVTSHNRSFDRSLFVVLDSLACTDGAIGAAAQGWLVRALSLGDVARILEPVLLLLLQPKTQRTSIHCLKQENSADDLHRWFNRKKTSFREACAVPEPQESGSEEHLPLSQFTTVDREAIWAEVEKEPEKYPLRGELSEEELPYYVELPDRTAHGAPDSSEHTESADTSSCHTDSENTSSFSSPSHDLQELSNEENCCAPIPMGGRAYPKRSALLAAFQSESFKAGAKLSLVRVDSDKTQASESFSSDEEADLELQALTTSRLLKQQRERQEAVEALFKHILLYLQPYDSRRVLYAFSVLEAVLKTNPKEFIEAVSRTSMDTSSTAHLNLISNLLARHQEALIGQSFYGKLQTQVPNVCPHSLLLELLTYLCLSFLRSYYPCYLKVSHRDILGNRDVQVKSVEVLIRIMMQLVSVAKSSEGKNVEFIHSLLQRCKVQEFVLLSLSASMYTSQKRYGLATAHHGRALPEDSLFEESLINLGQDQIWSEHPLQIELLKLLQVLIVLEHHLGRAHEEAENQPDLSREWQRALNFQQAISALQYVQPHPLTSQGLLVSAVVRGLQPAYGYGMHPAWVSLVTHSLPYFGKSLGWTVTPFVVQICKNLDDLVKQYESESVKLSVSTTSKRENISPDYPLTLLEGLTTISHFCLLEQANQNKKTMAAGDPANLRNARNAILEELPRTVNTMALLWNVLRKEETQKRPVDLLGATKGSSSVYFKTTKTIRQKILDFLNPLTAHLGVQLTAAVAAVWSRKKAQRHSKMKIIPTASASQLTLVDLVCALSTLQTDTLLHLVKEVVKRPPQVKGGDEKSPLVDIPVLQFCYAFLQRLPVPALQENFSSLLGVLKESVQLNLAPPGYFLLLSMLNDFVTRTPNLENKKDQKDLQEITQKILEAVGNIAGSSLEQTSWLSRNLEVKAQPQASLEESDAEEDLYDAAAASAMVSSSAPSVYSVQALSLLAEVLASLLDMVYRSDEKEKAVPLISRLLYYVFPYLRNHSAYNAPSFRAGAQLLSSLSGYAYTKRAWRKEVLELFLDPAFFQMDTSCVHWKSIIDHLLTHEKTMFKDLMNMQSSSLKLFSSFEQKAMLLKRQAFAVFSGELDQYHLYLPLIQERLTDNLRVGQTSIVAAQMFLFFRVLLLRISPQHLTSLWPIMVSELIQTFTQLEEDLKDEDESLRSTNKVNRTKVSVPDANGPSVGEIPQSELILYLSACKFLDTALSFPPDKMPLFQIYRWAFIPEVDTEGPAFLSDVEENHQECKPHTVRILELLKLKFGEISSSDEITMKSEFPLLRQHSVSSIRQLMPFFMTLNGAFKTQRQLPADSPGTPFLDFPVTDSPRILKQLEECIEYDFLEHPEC
UniProt Q6XUX3: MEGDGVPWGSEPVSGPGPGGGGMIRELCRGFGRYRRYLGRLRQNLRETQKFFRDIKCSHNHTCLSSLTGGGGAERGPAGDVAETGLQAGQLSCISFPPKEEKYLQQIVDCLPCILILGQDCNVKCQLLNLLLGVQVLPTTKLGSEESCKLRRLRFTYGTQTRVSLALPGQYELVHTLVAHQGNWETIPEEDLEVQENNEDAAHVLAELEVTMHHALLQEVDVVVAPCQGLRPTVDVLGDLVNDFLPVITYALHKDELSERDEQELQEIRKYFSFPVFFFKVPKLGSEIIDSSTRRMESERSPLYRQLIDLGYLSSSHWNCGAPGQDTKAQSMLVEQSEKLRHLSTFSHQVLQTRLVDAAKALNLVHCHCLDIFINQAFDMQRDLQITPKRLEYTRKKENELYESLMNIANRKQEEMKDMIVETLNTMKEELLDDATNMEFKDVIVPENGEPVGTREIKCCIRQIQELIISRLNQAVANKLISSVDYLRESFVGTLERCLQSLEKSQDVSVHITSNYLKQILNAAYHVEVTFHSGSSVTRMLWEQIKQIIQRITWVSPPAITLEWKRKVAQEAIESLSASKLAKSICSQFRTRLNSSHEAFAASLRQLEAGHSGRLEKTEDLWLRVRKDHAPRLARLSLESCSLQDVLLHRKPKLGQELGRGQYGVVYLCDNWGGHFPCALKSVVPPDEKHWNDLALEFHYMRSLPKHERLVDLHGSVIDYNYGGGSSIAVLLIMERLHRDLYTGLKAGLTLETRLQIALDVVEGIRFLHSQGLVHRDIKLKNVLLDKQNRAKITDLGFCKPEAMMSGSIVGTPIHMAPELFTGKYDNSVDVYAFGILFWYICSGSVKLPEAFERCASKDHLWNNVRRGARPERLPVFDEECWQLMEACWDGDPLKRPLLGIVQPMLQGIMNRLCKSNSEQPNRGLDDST
UniProt P51808: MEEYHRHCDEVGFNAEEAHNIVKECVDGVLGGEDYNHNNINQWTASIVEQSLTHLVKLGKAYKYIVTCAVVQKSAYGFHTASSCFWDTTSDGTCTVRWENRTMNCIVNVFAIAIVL
UniProt Q13409, whole entry, looked up: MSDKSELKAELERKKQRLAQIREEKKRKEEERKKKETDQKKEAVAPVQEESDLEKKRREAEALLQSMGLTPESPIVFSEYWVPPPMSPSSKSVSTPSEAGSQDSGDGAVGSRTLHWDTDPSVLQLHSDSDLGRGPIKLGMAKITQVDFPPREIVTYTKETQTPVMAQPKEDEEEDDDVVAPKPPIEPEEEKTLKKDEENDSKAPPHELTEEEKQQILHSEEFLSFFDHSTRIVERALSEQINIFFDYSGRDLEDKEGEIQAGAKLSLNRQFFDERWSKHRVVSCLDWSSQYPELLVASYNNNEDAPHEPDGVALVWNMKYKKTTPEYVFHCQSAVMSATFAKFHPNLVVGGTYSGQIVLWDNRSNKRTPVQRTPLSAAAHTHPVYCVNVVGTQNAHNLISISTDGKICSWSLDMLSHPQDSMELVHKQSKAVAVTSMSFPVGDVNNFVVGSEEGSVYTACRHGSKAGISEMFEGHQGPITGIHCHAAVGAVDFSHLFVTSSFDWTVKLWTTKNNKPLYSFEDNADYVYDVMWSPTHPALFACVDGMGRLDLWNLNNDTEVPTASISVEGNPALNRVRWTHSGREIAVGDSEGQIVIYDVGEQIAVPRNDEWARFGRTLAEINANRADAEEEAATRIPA
UniProt O77932: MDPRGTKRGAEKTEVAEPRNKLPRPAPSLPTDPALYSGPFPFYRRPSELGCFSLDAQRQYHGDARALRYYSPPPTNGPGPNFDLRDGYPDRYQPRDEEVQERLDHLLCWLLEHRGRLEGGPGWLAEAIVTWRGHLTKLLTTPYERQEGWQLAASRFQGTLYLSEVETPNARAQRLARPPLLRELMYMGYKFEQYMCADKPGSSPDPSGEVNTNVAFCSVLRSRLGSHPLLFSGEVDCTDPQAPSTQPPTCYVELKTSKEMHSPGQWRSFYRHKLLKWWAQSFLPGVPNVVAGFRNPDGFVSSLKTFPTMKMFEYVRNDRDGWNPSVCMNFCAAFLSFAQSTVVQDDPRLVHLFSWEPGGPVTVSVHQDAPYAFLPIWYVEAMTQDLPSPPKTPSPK
UniProt Q9NRR4: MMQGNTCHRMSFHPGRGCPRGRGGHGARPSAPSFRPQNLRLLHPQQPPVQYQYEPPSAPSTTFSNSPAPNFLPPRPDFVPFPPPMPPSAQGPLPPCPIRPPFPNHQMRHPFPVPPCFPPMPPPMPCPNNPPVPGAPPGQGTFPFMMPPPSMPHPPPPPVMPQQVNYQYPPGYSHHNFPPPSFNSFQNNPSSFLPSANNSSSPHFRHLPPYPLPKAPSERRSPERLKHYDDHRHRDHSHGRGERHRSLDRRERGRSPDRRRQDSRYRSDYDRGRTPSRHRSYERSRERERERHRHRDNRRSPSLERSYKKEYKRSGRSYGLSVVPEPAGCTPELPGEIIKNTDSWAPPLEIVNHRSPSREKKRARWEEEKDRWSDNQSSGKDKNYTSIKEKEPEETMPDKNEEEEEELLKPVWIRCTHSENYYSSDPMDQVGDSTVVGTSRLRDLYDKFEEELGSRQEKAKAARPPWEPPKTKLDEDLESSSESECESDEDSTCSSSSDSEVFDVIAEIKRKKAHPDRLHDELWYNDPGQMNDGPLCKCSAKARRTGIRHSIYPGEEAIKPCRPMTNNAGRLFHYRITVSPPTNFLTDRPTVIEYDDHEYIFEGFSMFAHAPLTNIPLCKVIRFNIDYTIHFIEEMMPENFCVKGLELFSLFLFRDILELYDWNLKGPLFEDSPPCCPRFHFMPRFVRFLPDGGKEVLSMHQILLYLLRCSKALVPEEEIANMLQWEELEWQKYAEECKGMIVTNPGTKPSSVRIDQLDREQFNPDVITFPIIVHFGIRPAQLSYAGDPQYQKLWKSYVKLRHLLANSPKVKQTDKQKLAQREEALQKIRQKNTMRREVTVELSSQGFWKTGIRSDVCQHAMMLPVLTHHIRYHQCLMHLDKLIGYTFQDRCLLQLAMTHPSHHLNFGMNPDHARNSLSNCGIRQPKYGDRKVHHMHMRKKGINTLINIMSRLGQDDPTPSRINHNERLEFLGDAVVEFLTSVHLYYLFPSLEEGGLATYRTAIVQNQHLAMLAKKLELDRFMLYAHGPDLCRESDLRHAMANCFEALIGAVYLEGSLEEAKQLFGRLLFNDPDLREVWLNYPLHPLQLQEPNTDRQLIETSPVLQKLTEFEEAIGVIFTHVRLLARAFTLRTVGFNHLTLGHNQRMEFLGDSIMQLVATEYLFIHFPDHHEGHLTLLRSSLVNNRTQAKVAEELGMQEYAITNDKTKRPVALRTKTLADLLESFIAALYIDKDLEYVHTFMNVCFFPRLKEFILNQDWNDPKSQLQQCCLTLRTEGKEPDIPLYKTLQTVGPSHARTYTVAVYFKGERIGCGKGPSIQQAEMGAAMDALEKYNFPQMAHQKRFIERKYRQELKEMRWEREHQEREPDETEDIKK

Legend:
Experiment in all cases: log2 fold change, soluble protein after heating vs DMSO (PISA); higher = thermal stabilisation; K562 cells, 10 uM, 30 min; active = over 0.2 and 3.5 SD of the protein, either way, in both replicates (recomputed)
[1] = compound: Cc1ccc(NC(=O)c2ccc(CN3CC[C@H](N(C)C)C3)c(C(F)(F)F)c2)cc1Nc1nccc(-c2cncnc2)n1 [bafetinib]
Outline: (§1)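 Soluble protein was defined as the supernatant after 21,000xg for 90 min. It came from K562 cells at 2×10^6 cells/mL given 10 μM compound for 30 min, heated in aliquots for 3 min across 48°C-58°C, pooled, and extracted in PBS with 0.5% NP-40 at 4°C, and was quantified by TMTpro 16plex LC-MS/MS with equalised channel sums. Thermal stability against control samples, from duplicates, is reported as log2 fold change.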

[2] = compound: Cc1cccc(CC(=O)N2CCc3c2ccc(-c2cn(C)c4ncnc(N)c24)c3F)n1
Outline: as §1

[3] = compound: Cc1cn(-c2cc(NC(=O)c3ccc(C)c(Nc4nccc(-c5cccnc5)n4)c3)cc(C(F)(F)F)c2)cn1 [nilotinib]
Outline: as §1

[4] = compound: Cc1nc(Nc2n[nH]c3c2CN(C(=O)N[C@H](CN(C)C)c2ccccc2)C3(C)C)c2sccc2n1
Outline: as §1

[5] = compound: Cc1ncc(-c2ccnc(Nc3ccc(S(C)(=O)=O)cc3)n2)n1C(C)C
Outline: as §1

[6] = compound: Cn1cc(-c2ccc3c(c2)CCN3C(=O)Cc2cccc(C(F)(F)F)c2)c2c(N)ncnc21
Outline: as §1

[7] = compound: Cn1cc(-c2ccc3nnc(C(F)(F)c4ccc5ncccc5c4)n3n2)cn1
Outline: as §1

[8] = compound: Cn1cncc1[C@@](N)(c1ccc(Cl)cc1)c1ccc2c(c1)c(-c1cccc(Cl)c1)cc(=O)n2C [tipifarnib]
Outline: as §1

[9] = compound: FC(F)(F)c1ccc(/C=C/c2nc(COc3ccc(CCCCn4ccnn4)cc3)co2)cc1 [mubritinib]
Outline: as §1

[10] = compound: NC(=O)Nc1cc(-c2cccc(F)c2)sc1C(=O)N[C@H]1CCCNC1
Outline: as §1

[11] = compound: NC(=O)c1cnc(N[C@@H]2CCCC[C@@H]2N)nc1Nc1cccc(-n2nccn2)c1
Outline: as §1

[12] = compound: NC1(c2ccc(-c3nc4ccn5c(=O)[nH]nc5c4cc3-c3ccccc3)cc2)CCC1
Outline: as §1

[13] = compound: NCC(=O)Nc1ccc(-n2nc(C(F)(F)F)cc2-c2ccc3c(ccc4ccccc43)c2)cc1
Outline: as §1

[14] = compound: Nc1ccccc1NC(=O)c1ccc(CNC(=O)OCc2cccnc2)cc1 [entinostat]
Outline: as §1

[15] = compound: O=C(CCCCCCC(=O)Nc1ccccc1)NO [vorinostat]
Outline: as §1

[16] = compound: O=C(CCCCCCNC(=O)c1cnc(N(c2ccccc2)c2ccccc2Cl)nc1)NO [citarinostat]
Outline: as §1

[17] = compound: O=C(O)c1ccc2c(c1)nc(Nc1cccc(Cl)c1)c1ccncc12 [silmitasertib]
Outline: as §1

[18] = compound: O=C1NC(=O)C(c2cnc3ccccn23)=C1c1cn2c3c(cc(F)cc13)CN(C(=O)N1CCCCC1)CC2
Outline: as §1

[19] = compound: c1cc(OCCN2CCCCC2)cc(-c2n[nH]c3ccc(-c4nnc[nH]4)cc23)c1
Outline: as §1

[20] = compound: Cc1nc(Nc2ncc(C(=O)Nc3c(C)cccc3Cl)s2)cc(N2CCN(CCO)CC2)n1 [dasatinib]
Outline: as §1

Measured: log2 fold change

DNAJB14 (UniProt Q8TBM8)
inactive: [1] -0.095 | [2] 0.077 | [3] -0.02 | [4] 0.003 | [5] 0.07 | [6] 0.041 | [7] -0.013 | [8] -0.143 | [9] 0.146 | [10] 0.033 | [11] 0.021 | [12] -0.102 | [13] 0.06 | [14] 0.004 | [15] 0.014 | [16] 0.006 | [17] -0.043 | [18] 0.067 | [19] 0.012

DPH3 (UniProt Q96FX2)
inactive: [1] 0.195 | [2] -0.04 | [3] 0.099 | [4] 0.038 | [20] 0.014 | [5] -0.014 | [6] -0.015 | [8] -0.025 | [9] -0.079 | [10] 0.035 | [11] 0.286 | [12] 0.037 | [13] 0.035 | [14] 0.076 | [15] -0.057 | [16] -0.01 | [17] -0.002 | [18] -0.236 | [19] -0.012

DNPEP (UniProt C9JBE1)
inactive: [1] -0.082 | [2] -0.378 | [20] 0.089 | [8] 0.075 | [9] 0.127 | [10] -0.21 | [12] -0.011 | [13] -0.393 | [14] 0.008 | [15] -0.191 | [17] -0.016 | [18] -0.318

EARS2 isoform 2 (UniProt Q5JPH6)
inactive: [1] 0.003 | [3] -0.284 | [4] -0.288 | [20] -0.325 | [5] -0.014 | [7] 0.231 | [8] -0.085 | [9] -0.278 | [10] -0.082 | [11] 0.056 | [12] -0.005 | [13] -0.047 | [14] 0.074 | [16] 0.109 | [17] 0.047 | [18] -0.331 | [19] 0.086

DOCK8 (UniProt Q8NF50)
inactive: [1] -0.076 | [2] -0.055 | [3] 0.069 | [4] -0.057 | [20] 0.052 | [5] -0.126 | [6] -0.14 | [7] -0.067 | [9] 0.021 | [10] -0.088 | [11] 0.073 | [12] 0.461 | [13] 0.036 | [14] 0.079 | [15] 0.031 | [16] 0.064 | [17] 0.254 | [18] -0.12 | [19] 0.07

DOK3 (UniProt Q7L591)
inactive: [1] -0.083 | [2] -0.029 | [20] -0.072 | [6] 0.034 | [8] 0.061 | [9] -0.081 | [10] 0.008 | [11] -0.09 | [12] 0.51 | [13] -0.062 | [14] -0.04 | [15] -0.233 | [17] -0.052 | [18] -0.011

DOP1B (UniProt Q9Y3R5)
inactive: [1] -0.123 | [2] -0.014 | [3] -0.241 | [4] -0.105 | [5] 0.143 | [6] -0.034 | [7] 0.21 | [9] 0.156 | [10] -0.055 | [12] -0.201 | [13] -0.162 | [14] -0.013 | [15] 0.144 | [16] -0.042 | [17] 0.082 | [18] -0.049 | [19] 0.076

EDRF1 (UniProt Q3B7T1)
inactive: [1] -0.04 | [2] -0.209 | [20] -0.157 | [6] -0.275 | [7] -0.114 | [9] 0.045 | [10] -0.062 | [12] -0.044 | [14] -0.055 | [15] 0.083 | [16] -0.044 | [17] -0.031 | [18] -0.057 | [19] -0.103

DSTYK (UniProt Q6XUX3)
inactive: [1] 0.12 | [2] 0.058 | [3] 0.018 | [4] 0.111 | [20] -0.14 | [5] -0.086 | [6] 0.138 | [13] -0.077 | [15] 0.049 | [16] 0.161 | [18] -0.059 | [19] -0.141

DYNLT3 (UniProt P51808)
inactive: [1] -0.064 | [3] 0.014 | [4] -0.064 | [5] -0.089 | [6] -0.061 | [11] 0.046 | [16] 0.021 | [19] -0.066

DYNC1I2 isoform 2 (UniProt Q13409)
inactive: [1] -0.038 | [6] -0.311 | [7] -0.067 | [8] 0.177 | [9] 0.067 | [10] 0.181 | [11] 0 | [12] -0.037 | [14] -0.206 | [16] 0.094 | [17] -0.154 | [18] -0.127 | [19] -0.035

DXO (UniProt O77932)
inactive: [1] 0 | [2] -0.097 | [3] 0.046 | [4] 0 | [20] -0.04 | [5] -0.008 | [6] 0.012 | [7] 0.046 | [9] 0.088 | [11] 0.044 | [12] -0.147 | [13] 0.029 | [15] 0.099 | [16] -0.139 | [17] -0.032 | [18] -0.129 | [19] -0.039

DOCK1 (UniProt Q14185)
inactive: [1] -0.047 | [20] 0.15 | [6] -0.028 | [7] 0.147 | [8] 0.138 | [10] 0.061 | [11] -0.143 | [13] -0.391 | [14] -0.013 | [16] 0.049 | [18] -0.157 | [19] -0.105

DSN1 (UniProt Q9H410)
inactive: [1] 0.063 | [3] 0.082 | [4] -0.217 | [20] -0.242 | [5] 0.104 | [6] 0.041 | [7] 0.059 | [8] 0.027 | [9] -0.03 | [10] -0.026 | [11] -0.057 | [12] -0.166 | [13] -0.037 | [14] 0.076 | [16] 0.021 | [17] 0.025 | [18] -0.032 | [19] -0.081

DROSHA (UniProt Q9NRR4)
inactive: [6] -0.284 | [11] 0.004 | [18] 0.412
